Assay results taken from US11311522B1 (Cavion, Inc., priority 2018, dated 2022).
For at least one compound, name, drawing or mass did not settle the structure.

System: patients with schizophrenia
Experiment: PN004: efficacy in acutely psychotic patients with schizophrenia (PANSS)
Settings: human, in vivo
Source text: The primary efficacy endpoint was the mean change from baseline in the Positive and Negative Syndrome Scale (PANSS) total score at Week 4; secondary efficacy endpoints included responder rates on the PANSS total score at Week 4 and the change from baseline in the Clinical Global Impressions—Severity of Illness Scale at Week 4. Safety was monitored by adverse events, laboratory evaluations, ECGs, Holter monitoring, vital signs, the Simpson-Angus Scale, the Barnes Akathisia Rating Scale, the Abnormal Involuntary Movement Scale, and the Columbia Suicide-Severity Rating scale (C-SSRS).

SMILES: Cc1cc2c(s1)Nc1ccccc1N=C2N1CCN(C)CC1 [olanzapine, reference compound]
- PANSS total score change at Week 4 and secondary endpoints vs placebo: No statistically significant differences
